Measured values reported in publication PMC9352920.
No constants are given. Whether binding was seen depends on the method and setting. Binding seen in cells or lysates may run through a third protein. Some binding calls cover weakened binding; strength is not graded here.

Sequences of proteins named here, by UniProt entry; tags and fusion partners are left off.
UniProt Q9BQQ3: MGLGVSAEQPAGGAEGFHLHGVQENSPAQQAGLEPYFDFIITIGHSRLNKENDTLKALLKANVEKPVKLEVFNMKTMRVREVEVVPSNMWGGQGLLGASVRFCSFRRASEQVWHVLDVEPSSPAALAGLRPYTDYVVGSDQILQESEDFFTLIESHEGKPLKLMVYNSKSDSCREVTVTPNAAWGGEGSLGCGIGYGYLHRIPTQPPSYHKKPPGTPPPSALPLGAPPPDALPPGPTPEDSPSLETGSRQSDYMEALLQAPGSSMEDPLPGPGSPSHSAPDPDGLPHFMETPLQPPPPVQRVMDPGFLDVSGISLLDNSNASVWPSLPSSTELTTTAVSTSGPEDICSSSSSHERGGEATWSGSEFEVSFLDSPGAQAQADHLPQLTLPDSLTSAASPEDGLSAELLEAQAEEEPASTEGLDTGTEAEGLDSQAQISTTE

B1: GM130 (protein, UniProt Q08379 1-1002)
chain: MWPQPRLPPRPAMSEETRQSKLAAAKKKLREYQQRNSPGVPTGAKKKKKIKNGSNPETTTSGGCHSPEDTPKDNAATLQPSDDTVLPGGVPSPGASLTSMAASQNHDADNVPNLMDETKTFSSTESLRQLSQQLNGLVCESATCVNGEGPASSANLKDLESRYQQLAVALDSSYVTNKQLNITIEKLKQQNQEITDQLEEEKKECHQKQGALREQLQVHIQTIGILVSEKAELQTALAHTQHAARQKEGESEDLASRLQYSRRRVGELERALSAVSTQQKKADRYNKELTKERDALRLELYKNTQSNEDLKQEKSELEEKLRVLVTEKAGMQLNLEELQKKLEMTELLLQQFSSRCEAPDANQQLQQAMEERAQLEAHLGQVMESVRQLQMERDKYAENLKGESAMWRQRMQQMSEQVHTLREEKECSMSRVQELETSLAELRNQMAEPPPPEPPAGPSEVEQQLQAEAEHLRKELEGLAGQLQAQVQDNEGLSRLNREQEERLLELERAAELWGEQAEARRQILETMQNDRTTISRALSQNRELKEQLAELQSGFVKLTNENMEITSALQSEQHVKRELGKKLGELQEKLSELKETVELKSQEAQSLQQQRDQYLGHLQQYVAAYQQLTSEKEVLHNQLLLQTQLVDQLQQQEAQGKAVAEMARQELQETQERLEAATQQNQQLRAQLSLMAHPGEGDGLDREEEEDEEEEEEEAVAVPQPMPSIPEDLESREAMVAFFNSAVASAEEEQARLRGQLKEQRVRCRRLAHLLASAQKEPEAAAPAPGTGGDSVCGETHRALQGAMEKLQSRFMELMQEKADLKERVEELEHRCIQLSGETDTIGEYIALYQSQRAVLKERHREKEEYISRLAQDKEEMKVKLLELQELVLRLVGDRNEWHGRFLAAAQNPADEPTSGAPAPQELGAANQQGDLCEVSLAGSVEPAQGEAREGSPRDNPTAQQIMQLLREMQNPRERPGLGSNPCIPFFYRADENDEVKITVI
B2: p23, also known as TMED10 (protein, UniProt P49755 32-219)
chain: ISFHLPINSRKCLREEIHKDLLVTGAYEISDQSGGAGGLRSHLKITDSAGHILYSKEDATKGKFAFTTEDYDMFEVCFESKGTGRIPDQLVILDMKHGVEAKNYEEIAKVEKLKPLEVELRRLEDLSESIVNDFAYMKKREEEMRDTNESTNTRVLYFSIFSMFCLIGLATWQVFYLRRFFKAKKLIE

Biological target: GRASP65 (GORASP1) (UniProt Q9BQQ3)
Test: co-IP; co-immunoprecipitation with GRASP55 or GRASP65 (Fig. S4D); cells, antibodies and buffer not told in the main text

Binder	binding
B1	binds
B2	no binding
